According to PubChem BioAssay AID188 (DTP/NCI, 2004):
Shown are survivors of the treated group in tumour-free mice. Survivors were counted at the toxicity check, usually on the fifth day, unless a day is given; later deaths do not show. Schedules are NCI's codes, taken here to give the interval after Q, in days (D) or hours (H), and the number of doses after X.

Tested on: CD2F1 mice, nontumored, toxicity/survival
Test: NCI In Vivo Anticancer Drug Screen. Data for tumor model Nontumored Animals (Toxicity Test) in CD2F1 (CDF1) mice

`N=[N+]=CC(=O)CCC(NC(=O)C(CCC(=O)C=[N+]=N)NC(=O)CCC(N)C(=O)O)C(=O)O` (stereo not given) was tested, and the survivor count (dose: 0.01 mg/kg/injection, schedule: Q01DX009 (ip), vehicle: water) was 8 of 8, the survivor count (dose: 0.03 mg/kg/injection, schedule: Q01DX009 (ip), vehicle: water) was 8 of 8 and the survivor count (dose: 0.05 mg/kg/injection, schedule: Q01DX009 (ip), vehicle: water) was 8 of 8. The survivor count (dose: 0.05 mg/kg/injection, schedule: Q01DX009 (oral), vehicle: water) was 8 of 8, the survivor count (dose: 0.05 mg/kg/injection, schedule: Q01DX009 (sc), vehicle: water) was 8 of 8 and the survivor count (dose: 0.1 mg/kg/injection, schedule: Q01DX009 (ip), vehicle: water) was 8 of 8. The survivor count (dose: 0.1 mg/kg/injection, schedule: Q01DX009 (oral), vehicle: water) was 8 of 8, the survivor count (dose: 0.1 mg/kg/injection, schedule: Q01DX009 (sc), vehicle: water) was 8 of 8 and the survivor count (dose: 0.2 mg/kg/injection, schedule: Q01DX009 (ip), vehicle: water) was 8 of 8. The survivor count (dose: 0.2 mg/kg/injection, schedule: Q01DX009 (oral), vehicle: water) was 8 of 8, the survivor count (dose: 0.2 mg/kg/injection, schedule: Q01DX009 (sc), vehicle: water) was 8 of 8 and the survivor count (dose: 0.4 mg/kg/injection, schedule: Q01DX009 (oral), vehicle: water) was 8 of 8. For the same compound, the survivor count (dose: 0.4 mg/kg/injection, schedule: Q01DX009 (sc), vehicle: water) was 8 of 8, the survivor count (dose: 0.8 mg/kg/injection, schedule: Q01DX009 (oral), vehicle: water) was 8 of 8 and the survivor count (dose: 0.8 mg/kg/injection, schedule: Q01DX009 (sc), vehicle: water) was 8 of 8. For the same compound, the survivor count (dose: 0.8 mg/kg/injection, schedule: Q03HX024 (ip), vehicle: water) was 8 of 8, the survivor count (dose: 1.6 mg/kg/injection, schedule: Q03HX016 (ip), vehicle: water) was 6 of 8 and the survivor count (dose: 1.6 mg/kg/injection, schedule: Q03HX024 (ip), vehicle: water) was 6 of 8. For the same compound, the survivor count (dose: 3.1 mg/kg/injection, schedule: Q03HX008 (ip), vehicle: water) was 7 of 8, the survivor count (dose: 3.1 mg/kg/injection, schedule: Q03HX016 (ip), vehicle: water) was 6 of 8 and the survivor count (dose: 3.1 mg/kg/injection, schedule: Q03HX024 (ip), vehicle: water) was 7 of 8. For the same compound, the survivor count (dose: 6.2 mg/kg/injection, schedule: Q03HX008 (ip), vehicle: water) was 6 of 8, the survivor count (dose: 6.2 mg/kg/injection, schedule: Q04DX003 (ip), vehicle: water) was 8 of 8 and the survivor count (dose: 6.25 mg/kg/injection, schedule: Q03HX016 (ip), vehicle: water) was 6 of 8. The survivor count (dose: 6.25 mg/kg/injection, schedule: Q03HX024 (ip), vehicle: water) was 7 of 8, the survivor count (dose: 12.5 mg/kg/injection, schedule: Q03HX008 (ip), vehicle: water) was 4 of 8 and the survivor count (dose: 12.5 mg/kg/injection, schedule: Q03HX016 (ip), vehicle: water) was 4 of 8. For the same compound, the survivor count (dose: 12.5 mg/kg/injection, schedule: Q03HX024 (ip), vehicle: water) was 4 of 8, the survivor count (dose: 12.5 mg/kg/injection, schedule: Q04DX003 (ip), vehicle: water) was 8 of 8 and the survivor count (dose: 12.5 mg/kg/injection, schedule: Q08DX002 (ip), vehicle: water) was 8 of 8. For the same compound, the survivor count (dose: 25.0 mg/kg/injection, schedule: Q01DX001 (ip), vehicle: water) was 8 of 8, the survivor count (dose: 25.0 mg/kg/injection, schedule: Q01DX001 (oral), vehicle: water) was 8 of 8 and the survivor count (dose: 25.0 mg/kg/injection, schedule: Q01DX001 (sc), vehicle: water) was 8 of 8. For the same compound, the survivor count (dose: 25.0 mg/kg/injection, schedule: Q03HX008 (ip), vehicle: water) was 4 of 8, the survivor count (dose: 25.0 mg/kg/injection, schedule: Q03HX016 (ip), vehicle: water) was 4 of 8 and the survivor count (dose: 25.0 mg/kg/injection, schedule: Q04DX003 (ip), vehicle: water) was 8 of 8. For the same compound, the survivor count (dose: 25.0 mg/kg/injection, schedule: Q08DX002 (ip), vehicle: water) was 8 of 8, the survivor count (dose: 50.0 mg/kg/injection, schedule: Q01DX001 (ip), vehicle: water) was 8 of 8 and the survivor count (dose: 50.0 mg/kg/injection, schedule: Q01DX001 (oral), vehicle: water) was 8 of 8. For the same compound, the survivor count (dose: 50.0 mg/kg/injection, schedule: Q01DX001 (sc), vehicle: water) was 8 of 8, the survivor count (dose: 50.0 mg/kg/injection, schedule: Q03HX008 (ip), vehicle: water) was 0 of 8 and the survivor count (dose: 50.0 mg/kg/injection, schedule: Q04DX003 (ip), vehicle: water) was 8 of 8. For the same compound, the survivor count (dose: 50.0 mg/kg/injection, schedule: Q08DX002 (ip), vehicle: water) was 8 of 8, the survivor count (dose: 100.0 mg/kg/injection, schedule: Q01DX001 (ip), vehicle: water) was 7 of 8 and the survivor count (dose: 100.0 mg/kg/injection, schedule: Q01DX001 (oral), vehicle: water) was 8 of 8. The survivor count (dose: 100.0 mg/kg/injection, schedule: Q01DX001 (sc), vehicle: water) was 7 of 7, the survivor count (dose: 100.0 mg/kg/injection, schedule: Q04DX003 (ip), vehicle: water) was 8 of 8 and the survivor count (dose: 100.0 mg/kg/injection, schedule: Q08DX002 (ip), vehicle: water) was 8 of 8. For the same compound, the survivor count (dose: 200.0 mg/kg/injection, schedule: Q01DX001 (ip), vehicle: water) was 8 of 8, the survivor count (dose: 200.0 mg/kg/injection, schedule: Q01DX001 (oral), vehicle: water) was 8 of 8 and the survivor count (dose: 200.0 mg/kg/injection, schedule: Q01DX001 (sc), vehicle: water) was 7 of 8. For the same compound, the survivor count (dose: 200.0 mg/kg/injection, schedule: Q08DX002 (ip), vehicle: water) was 7 of 8, the survivor count (dose: 400.0 mg/kg/injection, schedule: Q01DX001 (ip), vehicle: water) was 7 of 8 and the survivor count (dose: 400.0 mg/kg/injection, schedule: Q01DX001 (oral), vehicle: water) was 7 of 8. The survivor count (dose: 400.0 mg/kg/injection, schedule: Q01DX001 (sc), vehicle: water) was 7 of 8.

With `COc1cc2c(cc1OC)C(OC)N(C)c1c-2ccc2cc3c(cc12)OCO3` (stereo not given) the survivor count (dose: 2.0 mg/kg/injection, schedule: Q01DX009 (ip), vehicle: water) was 8 of 8, the survivor count (dose: 2.0 mg/kg/injection, schedule: Q03HX008 (ip), vehicle: water) was 8 of 8 and the survivor count (dose: 4.0 mg/kg/injection, schedule: Q01DX009 (ip), vehicle: water) was 7 of 8. For the same compound, the survivor count (dose: 4.0 mg/kg/injection, schedule: Q01DX009 (oral), vehicle: water) was 8 of 8, the survivor count (dose: 4.0 mg/kg/injection, schedule: Q01DX009 (sc), vehicle: water) was 8 of 8 and the survivor count (dose: 4.0 mg/kg/injection, schedule: Q03HX008 (ip), vehicle: water) was 8 of 8. For the same compound, the survivor count (dose: 8.0 mg/kg/injection, schedule: Q01DX009 (ip), vehicle: water) was 8 of 8, the survivor count (dose: 8.0 mg/kg/injection, schedule: Q01DX009 (oral), vehicle: water) was 8 of 8 and the survivor count (dose: 8.0 mg/kg/injection, schedule: Q01DX009 (sc), vehicle: water) was 8 of 8. For the same compound, the survivor count (dose: 8.0 mg/kg/injection, schedule: Q03HX008 (ip), vehicle: water) was 8 of 8, the survivor count (dose: 8.0 mg/kg/injection, schedule: Q04DX003 (ip), vehicle: water) was 8 of 8 and the survivor count (dose: 16.0 mg/kg/injection, schedule: Q01DX001 (ip), vehicle: water) was 8 of 8. The survivor count (dose: 16.0 mg/kg/injection, schedule: Q01DX009 (ip), vehicle: water) was 8 of 8, the survivor count (dose: 16.0 mg/kg/injection, schedule: Q01DX009 (oral), vehicle: water) was 8 of 8 and the survivor count (dose: 16.0 mg/kg/injection, schedule: Q01DX009 (sc), vehicle: water) was 8 of 8. The survivor count (dose: 16.0 mg/kg/injection, schedule: Q03HX008 (ip), vehicle: water) was 2 of 8, the survivor count (dose: 16.0 mg/kg/injection, schedule: Q04DX003 (ip), vehicle: water) was 8 of 8 and the survivor count (dose: 16.0 mg/kg/injection, schedule: Q08DX002 (ip), vehicle: water) was 8 of 8. For the same compound, the survivor count (dose: 32.0 mg/kg/injection, schedule: Q01DX001 (ip), vehicle: water) was 8 of 8, the survivor count (dose: 32.0 mg/kg/injection, schedule: Q01DX009 (ip), vehicle: water) was 8 of 8 and the survivor count (dose: 32.0 mg/kg/injection, schedule: Q01DX009 (oral), vehicle: water) was 8 of 8. For the same compound, the survivor count (dose: 32.0 mg/kg/injection, schedule: Q01DX009 (sc), vehicle: water) was 8 of 8, the survivor count (dose: 32.0 mg/kg/injection, schedule: Q04DX003 (ip), vehicle: water) was 8 of 8 and the survivor count (dose: 32.0 mg/kg/injection, schedule: Q08DX002 (ip), vehicle: water) was 8 of 8. The survivor count (dose: 64.0 mg/kg/injection, schedule: Q01DX001 (ip), vehicle: water) was 8 of 8, the survivor count (dose: 64.0 mg/kg/injection, schedule: Q01DX009 (ip), vehicle: water) was 0 of 8 and the survivor count (dose: 64.0 mg/kg/injection, schedule: Q01DX009 (oral), vehicle: water) was 8 of 8. For the same compound, the survivor count (dose: 64.0 mg/kg/injection, schedule: Q01DX009 (sc), vehicle: water) was 8 of 8, the survivor count (dose: 64.0 mg/kg/injection, schedule: Q04DX003 (ip), vehicle: water) was 7 of 8 and the survivor count (dose: 64.0 mg/kg/injection, schedule: Q08DX002 (ip), vehicle: water) was 8 of 8. The survivor count (dose: 128.0 mg/kg/injection, schedule: Q01DX001 (ip), vehicle: water) was 4 of 8 and the survivor count (dose: 128.0 mg/kg/injection, schedule: Q08DX002 (ip), vehicle: water) was 4 of 8.

In the case of `Nc1ccc(-c2c(N)ncc3ccccc23)cc1`, the survivor count (dose: 1.0 mg/kg/injection, schedule: Q01DX001 (ip), vehicle: saline with Tween-80) is reported as 2 of 2, the survivor count (dose: 10.0 mg/kg/injection, schedule: Q01DX001 (ip), vehicle: saline with Tween-80) is reported as 2 of 2 and the survivor count (dose: 100.0 mg/kg/injection, schedule: Q01DX001 (ip), vehicle: saline with Tween-80) is reported as 2 of 2.
